Measured values: the supplement of paper PMC12823440, “Inhibitors supercharge kinase turnover through native proteolytic circuits” (Nature, 2025)
The list shows a part of the results. Hit calls seldom repeat between salt and free forms of one compound.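 Kinases were expressed as nanoluciferase fusions in K562 cells and luminescence was read every 4 h between 2 and 18 h as percent of control, DMSO set to 100% and a positive control to 0%. A time point counts as decreased when the signal drops significantly (2 sigma). The hit call is the authors' own, does not follow from the count of time points alone, and its rule is not shown.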

Amino acid sequences for entries named in this document (tags omitted). A change or cut given only in a name is not applied to a line headed by its entry.
UniProt P50613: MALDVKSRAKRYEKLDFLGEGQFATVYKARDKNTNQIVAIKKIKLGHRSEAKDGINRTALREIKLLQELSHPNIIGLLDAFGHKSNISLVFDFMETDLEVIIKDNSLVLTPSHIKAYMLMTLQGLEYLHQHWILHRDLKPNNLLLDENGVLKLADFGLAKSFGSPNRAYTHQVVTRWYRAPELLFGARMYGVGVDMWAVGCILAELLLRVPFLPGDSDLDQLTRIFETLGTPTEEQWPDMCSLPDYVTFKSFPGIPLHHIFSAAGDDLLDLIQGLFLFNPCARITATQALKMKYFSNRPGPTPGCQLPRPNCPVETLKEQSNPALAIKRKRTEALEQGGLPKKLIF
UniProt P50750, whole entry: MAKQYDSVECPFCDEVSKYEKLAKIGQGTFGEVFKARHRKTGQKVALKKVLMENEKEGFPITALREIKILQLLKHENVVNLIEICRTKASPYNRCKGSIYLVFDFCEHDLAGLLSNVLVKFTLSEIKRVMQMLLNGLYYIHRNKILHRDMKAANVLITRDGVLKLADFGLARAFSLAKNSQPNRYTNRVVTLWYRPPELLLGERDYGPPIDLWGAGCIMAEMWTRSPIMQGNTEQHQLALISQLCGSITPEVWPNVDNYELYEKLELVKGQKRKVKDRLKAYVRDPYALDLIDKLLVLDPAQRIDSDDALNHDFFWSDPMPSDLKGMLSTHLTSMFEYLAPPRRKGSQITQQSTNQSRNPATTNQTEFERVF
UniProt O96017, whole entry: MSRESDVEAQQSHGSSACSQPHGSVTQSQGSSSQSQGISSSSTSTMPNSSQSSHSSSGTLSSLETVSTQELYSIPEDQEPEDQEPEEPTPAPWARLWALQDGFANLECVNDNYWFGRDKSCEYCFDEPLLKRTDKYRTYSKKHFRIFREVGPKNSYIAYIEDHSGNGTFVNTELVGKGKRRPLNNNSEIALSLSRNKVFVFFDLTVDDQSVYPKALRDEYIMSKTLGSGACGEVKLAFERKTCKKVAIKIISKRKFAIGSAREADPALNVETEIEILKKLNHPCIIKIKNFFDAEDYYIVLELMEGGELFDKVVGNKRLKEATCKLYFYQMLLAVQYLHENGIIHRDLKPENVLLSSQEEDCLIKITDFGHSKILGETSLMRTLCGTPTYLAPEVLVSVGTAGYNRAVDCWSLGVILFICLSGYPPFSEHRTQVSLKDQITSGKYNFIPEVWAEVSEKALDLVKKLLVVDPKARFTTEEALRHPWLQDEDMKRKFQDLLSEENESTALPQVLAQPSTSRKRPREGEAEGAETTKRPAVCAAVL
UniProt P07333, whole entry: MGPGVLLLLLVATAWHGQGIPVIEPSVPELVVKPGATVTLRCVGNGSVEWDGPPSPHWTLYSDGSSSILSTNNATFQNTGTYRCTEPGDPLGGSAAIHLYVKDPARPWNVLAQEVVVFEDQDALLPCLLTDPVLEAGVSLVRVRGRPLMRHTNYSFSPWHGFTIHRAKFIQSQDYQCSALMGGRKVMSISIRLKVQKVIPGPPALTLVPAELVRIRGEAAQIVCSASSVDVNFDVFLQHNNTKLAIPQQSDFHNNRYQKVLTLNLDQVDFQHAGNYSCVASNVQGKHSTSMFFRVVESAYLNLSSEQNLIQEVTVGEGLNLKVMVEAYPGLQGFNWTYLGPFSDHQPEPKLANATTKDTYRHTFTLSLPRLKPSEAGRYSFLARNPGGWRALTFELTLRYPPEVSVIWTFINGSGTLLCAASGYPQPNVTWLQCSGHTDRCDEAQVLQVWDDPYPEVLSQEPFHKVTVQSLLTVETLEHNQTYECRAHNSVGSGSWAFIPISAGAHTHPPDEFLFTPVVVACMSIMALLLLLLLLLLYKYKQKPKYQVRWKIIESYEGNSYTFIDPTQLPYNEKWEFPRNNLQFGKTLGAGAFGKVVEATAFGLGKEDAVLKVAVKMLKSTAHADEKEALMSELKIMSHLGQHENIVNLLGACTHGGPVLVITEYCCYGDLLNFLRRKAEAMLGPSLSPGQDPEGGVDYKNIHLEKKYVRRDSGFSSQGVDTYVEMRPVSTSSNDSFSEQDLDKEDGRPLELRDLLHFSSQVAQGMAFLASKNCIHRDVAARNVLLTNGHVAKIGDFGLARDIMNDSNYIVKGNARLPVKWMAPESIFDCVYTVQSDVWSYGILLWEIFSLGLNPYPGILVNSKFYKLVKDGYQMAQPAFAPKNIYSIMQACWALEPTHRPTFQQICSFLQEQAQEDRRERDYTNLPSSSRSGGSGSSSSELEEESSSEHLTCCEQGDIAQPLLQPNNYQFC
UniProt P41240: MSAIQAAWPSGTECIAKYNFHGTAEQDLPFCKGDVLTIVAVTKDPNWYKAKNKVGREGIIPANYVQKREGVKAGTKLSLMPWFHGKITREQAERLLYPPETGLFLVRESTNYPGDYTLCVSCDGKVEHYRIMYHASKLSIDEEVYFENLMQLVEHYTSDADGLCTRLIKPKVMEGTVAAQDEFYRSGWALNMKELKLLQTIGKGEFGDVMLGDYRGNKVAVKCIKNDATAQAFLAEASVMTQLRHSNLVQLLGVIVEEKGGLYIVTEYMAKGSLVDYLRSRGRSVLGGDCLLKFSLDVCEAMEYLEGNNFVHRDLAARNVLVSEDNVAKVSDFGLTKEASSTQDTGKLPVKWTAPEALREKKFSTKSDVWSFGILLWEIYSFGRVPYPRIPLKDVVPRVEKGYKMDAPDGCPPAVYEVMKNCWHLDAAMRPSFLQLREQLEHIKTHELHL
UniProt P48729: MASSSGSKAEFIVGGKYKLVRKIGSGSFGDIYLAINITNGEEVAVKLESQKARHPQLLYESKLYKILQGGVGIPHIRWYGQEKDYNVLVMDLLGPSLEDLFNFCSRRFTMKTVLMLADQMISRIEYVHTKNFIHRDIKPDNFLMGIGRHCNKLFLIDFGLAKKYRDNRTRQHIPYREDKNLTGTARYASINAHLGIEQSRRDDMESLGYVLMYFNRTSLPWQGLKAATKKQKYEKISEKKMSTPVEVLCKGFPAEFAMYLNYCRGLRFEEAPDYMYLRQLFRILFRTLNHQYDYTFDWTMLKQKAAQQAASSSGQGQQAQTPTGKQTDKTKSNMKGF
UniProt Q9Y463, whole entry, looked up: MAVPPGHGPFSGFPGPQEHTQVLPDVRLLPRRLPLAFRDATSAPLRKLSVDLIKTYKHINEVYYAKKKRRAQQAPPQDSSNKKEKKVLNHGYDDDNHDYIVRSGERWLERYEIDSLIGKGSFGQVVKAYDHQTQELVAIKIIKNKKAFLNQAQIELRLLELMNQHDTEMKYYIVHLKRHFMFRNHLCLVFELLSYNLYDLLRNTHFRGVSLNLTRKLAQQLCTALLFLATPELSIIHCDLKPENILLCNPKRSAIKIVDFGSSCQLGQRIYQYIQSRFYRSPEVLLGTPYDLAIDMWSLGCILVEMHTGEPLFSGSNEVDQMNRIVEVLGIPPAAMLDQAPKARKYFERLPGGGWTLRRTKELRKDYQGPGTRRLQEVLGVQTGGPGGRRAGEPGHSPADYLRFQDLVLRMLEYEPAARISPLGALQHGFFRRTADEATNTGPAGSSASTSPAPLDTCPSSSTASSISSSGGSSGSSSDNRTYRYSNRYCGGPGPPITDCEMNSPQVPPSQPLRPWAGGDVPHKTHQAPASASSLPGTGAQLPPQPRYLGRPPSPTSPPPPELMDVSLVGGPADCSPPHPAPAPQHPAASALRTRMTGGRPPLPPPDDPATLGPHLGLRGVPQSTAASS
UniProt Q92630: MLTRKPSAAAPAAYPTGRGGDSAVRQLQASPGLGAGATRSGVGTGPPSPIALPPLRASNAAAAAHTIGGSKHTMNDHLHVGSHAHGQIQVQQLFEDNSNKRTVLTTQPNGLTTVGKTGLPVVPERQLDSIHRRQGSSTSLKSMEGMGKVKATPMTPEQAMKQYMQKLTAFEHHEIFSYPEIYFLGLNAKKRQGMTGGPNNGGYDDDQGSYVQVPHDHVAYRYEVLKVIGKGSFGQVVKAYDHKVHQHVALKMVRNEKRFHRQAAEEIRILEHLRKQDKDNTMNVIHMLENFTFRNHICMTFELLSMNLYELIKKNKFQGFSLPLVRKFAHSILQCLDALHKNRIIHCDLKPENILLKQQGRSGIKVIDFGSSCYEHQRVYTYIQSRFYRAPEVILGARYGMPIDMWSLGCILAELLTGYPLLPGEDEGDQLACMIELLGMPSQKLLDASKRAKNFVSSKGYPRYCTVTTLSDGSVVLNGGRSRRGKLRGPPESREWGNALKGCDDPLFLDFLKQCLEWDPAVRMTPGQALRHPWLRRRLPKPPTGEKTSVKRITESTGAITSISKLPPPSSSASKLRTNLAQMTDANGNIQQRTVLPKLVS
UniProt P29317, whole entry: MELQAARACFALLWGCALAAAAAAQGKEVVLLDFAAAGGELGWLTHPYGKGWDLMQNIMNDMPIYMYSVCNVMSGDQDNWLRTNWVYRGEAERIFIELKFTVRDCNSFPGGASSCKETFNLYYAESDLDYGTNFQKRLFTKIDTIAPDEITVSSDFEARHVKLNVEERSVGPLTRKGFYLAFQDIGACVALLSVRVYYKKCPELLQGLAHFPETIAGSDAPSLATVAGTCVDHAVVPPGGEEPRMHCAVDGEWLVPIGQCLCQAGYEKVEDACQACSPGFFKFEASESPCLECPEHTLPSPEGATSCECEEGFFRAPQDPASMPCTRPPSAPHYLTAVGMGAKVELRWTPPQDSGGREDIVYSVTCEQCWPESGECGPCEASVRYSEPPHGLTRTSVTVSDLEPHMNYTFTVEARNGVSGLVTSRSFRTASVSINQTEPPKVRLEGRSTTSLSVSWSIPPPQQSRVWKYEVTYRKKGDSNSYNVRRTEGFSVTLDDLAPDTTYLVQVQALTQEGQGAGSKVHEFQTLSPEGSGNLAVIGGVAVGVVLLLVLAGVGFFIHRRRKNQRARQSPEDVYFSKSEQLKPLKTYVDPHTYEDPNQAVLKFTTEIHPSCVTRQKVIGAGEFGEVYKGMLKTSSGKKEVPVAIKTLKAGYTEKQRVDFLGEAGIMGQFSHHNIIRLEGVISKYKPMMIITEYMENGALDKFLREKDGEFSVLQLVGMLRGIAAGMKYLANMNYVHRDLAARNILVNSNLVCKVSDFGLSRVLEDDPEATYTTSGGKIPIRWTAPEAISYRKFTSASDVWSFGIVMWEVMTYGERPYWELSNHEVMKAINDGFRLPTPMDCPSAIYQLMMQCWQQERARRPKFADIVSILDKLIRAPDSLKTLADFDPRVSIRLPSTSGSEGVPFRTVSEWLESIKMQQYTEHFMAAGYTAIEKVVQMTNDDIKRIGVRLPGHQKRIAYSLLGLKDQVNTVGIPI
UniProt P21860, whole entry: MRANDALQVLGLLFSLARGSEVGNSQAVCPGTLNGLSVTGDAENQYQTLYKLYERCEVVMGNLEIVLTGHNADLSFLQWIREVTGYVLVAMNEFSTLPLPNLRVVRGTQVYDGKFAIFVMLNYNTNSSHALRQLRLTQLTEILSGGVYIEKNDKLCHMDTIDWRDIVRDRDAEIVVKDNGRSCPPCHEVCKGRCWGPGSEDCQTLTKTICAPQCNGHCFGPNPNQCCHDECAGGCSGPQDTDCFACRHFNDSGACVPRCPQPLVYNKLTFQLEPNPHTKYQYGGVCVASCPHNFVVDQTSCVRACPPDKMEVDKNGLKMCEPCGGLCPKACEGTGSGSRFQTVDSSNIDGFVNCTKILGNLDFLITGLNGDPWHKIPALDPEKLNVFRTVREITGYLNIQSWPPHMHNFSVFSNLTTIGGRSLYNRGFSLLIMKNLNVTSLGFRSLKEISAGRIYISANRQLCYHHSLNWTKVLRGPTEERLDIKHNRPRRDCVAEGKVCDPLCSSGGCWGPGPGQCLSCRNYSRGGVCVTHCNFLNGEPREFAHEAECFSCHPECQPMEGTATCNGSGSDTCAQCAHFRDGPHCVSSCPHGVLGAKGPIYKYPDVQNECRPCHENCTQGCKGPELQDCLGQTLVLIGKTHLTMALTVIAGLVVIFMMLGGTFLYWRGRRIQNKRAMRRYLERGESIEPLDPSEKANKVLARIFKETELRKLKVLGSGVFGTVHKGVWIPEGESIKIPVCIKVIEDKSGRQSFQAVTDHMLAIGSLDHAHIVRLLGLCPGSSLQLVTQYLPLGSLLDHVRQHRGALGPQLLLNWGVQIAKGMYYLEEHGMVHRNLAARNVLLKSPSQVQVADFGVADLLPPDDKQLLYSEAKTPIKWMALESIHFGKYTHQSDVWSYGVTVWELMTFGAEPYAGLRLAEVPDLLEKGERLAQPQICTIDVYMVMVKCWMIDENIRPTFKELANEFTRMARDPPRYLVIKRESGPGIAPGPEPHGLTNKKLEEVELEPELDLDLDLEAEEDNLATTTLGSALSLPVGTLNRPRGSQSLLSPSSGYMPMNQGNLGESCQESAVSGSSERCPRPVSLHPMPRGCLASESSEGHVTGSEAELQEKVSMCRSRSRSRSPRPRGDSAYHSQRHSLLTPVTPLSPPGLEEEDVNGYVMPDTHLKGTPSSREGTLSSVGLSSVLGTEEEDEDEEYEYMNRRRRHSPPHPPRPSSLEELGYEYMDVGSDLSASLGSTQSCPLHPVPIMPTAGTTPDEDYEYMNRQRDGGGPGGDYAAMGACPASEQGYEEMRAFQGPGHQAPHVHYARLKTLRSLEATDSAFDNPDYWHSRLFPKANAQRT

Legend:
Assay in all cases: kinase-Nluc reporter destabilization hit call (1 = scored as downregulated) (binary); higher = compound decreases kinase abundance
Conditions in all cases: K562; 2-18 h
CDK7 = CDK7 (UniProt P50613)
CDK9 = CDK9 (UniProt P50750)
CHEK2 = CHEK2 (UniProt O96017)
CSF1R = CSF1R (UniProt P07333)
CSK = CSK (UniProt P41240)
CSNK1A1 = CSNK1A1 (UniProt P48729)
CSNK1D = CSNK1D (UniProt P48730)
DDR1 = DDR1 (UniProt Q08345)
DYRK1B = DYRK1B (UniProt Q9Y463)
DYRK2 = DYRK2 (UniProt Q92630)
EGFR = EGFR (UniProt P00533)
EGFR_G719S = EGFR_G719S (UniProt P00533)
EGFR_G719S_T790M = EGFR_G719S_T790M (UniProt P00533)
EGFR_L718V = EGFR_L718V (UniProt P00533)
EGFR_L858R = EGFR_L858R (UniProt P00533)
EGFR_L861Q = EGFR_L861Q (UniProt P00533)
EGFR_T790M = EGFR_T790M (UniProt P00533)
EPHA2 = EPHA2 (UniProt P29317)
ERBB3 = ERBB3 (UniProt P21860)
[1] = target: ERBB4_R711C (clone: ERBB4_mut) (UniProt Q15303)

Measured: kinase-Nluc reporter destabilization hit call

NC(=O)c1c(NC(=O)C2CC2)sc2c1CCCC2 (10 µM)
inactive: CDK7 = 0 | CDK9 = 0 | CHEK2 = 0 | CSF1R 0 | CSK 0 | CSNK1A1 = 0 | CSNK1D 0 | DDR1 = 0 | DYRK1B 0 | DYRK2 = 0 | EGFR 0 | EGFR_G719S 0 | EGFR_G719S_T790M 0 | EGFR_L718V 0 | EGFR_L858R 0 | EGFR_L861Q 0 | EGFR_T790M 0 | EPHA2 = 0 | ERBB3 = 0 | [1] 0

Cc1nc(Nc2cnn(C3CCNCC3)c2)nc2c1N(C)C(=O)c1cc3ccccc3cc1N2C (2.5 µM)
inactive: CDK7 = 0 | CDK9 = 0 | CHEK2 = 0 | CSF1R 0 | CSK 0 | CSNK1A1 = 0 | CSNK1D 0 | DDR1 = 0 | DYRK1B 0 | DYRK2 = 0 | EGFR 0 | EGFR_G719S 0 | EGFR_G719S_T790M 0 | EGFR_L718V 0 | EGFR_L858R 0 | EGFR_L861Q 0 | EGFR_T790M 0 | EPHA2 = 0 | ERBB3 = 0 | [1] 0

CN(C)CCn1cc2cc(NC(=O)c3cccc(C(F)(F)F)n3)c(C(C)(C)O)cc2n1 (10 µM)
inactive: CDK7 = 0 | CDK9 = 0 | CHEK2 = 0 | CSF1R 0 | CSK 0 | CSNK1A1 = 0 | CSNK1D 0 | DDR1 = 0 | DYRK1B 0 | DYRK2 = 0 | EGFR 0 | EGFR_G719S 0 | EGFR_G719S_T790M 0 | EGFR_L718V 0 | EGFR_L858R 0 | EGFR_L861Q 0 | EGFR_T790M 0 | EPHA2 = 0 | ERBB3 = 0 | [1] 0

N#Cc1cnc(Nc2cc(NC[C@H]3CNCCO3)c(C(F)(F)F)cn2)cn1 (10 µM)
inactive: CDK7 = 0 | CDK9 = 0 | CHEK2 = 0 | CSF1R 0 | CSK 0 | CSNK1A1 = 0 | CSNK1D 0 | DDR1 = 0 | DYRK1B 0 | DYRK2 = 0 | EGFR 0 | EGFR_G719S 0 | EGFR_G719S_T790M 0 | EGFR_L718V 0 | EGFR_L858R 0 | EGFR_L861Q 0 | EGFR_T790M 0 | EPHA2 = 0 | ERBB3 = 0 | [1] 0

Cc1cnc(Cl)nc1-c1ccc(N(Cc2ccc(CNC(=O)C(F)F)cc2)C(=O)c2ccc(O)cc2O)cc1 (10 µM)
inactive: CDK7 = 0 | CDK9 = 0 | CHEK2 = 0 | CSF1R 0 | CSK 0 | CSNK1A1 = 0 | CSNK1D 0 | DDR1 = 0 | DYRK1B 0 | DYRK2 = 0 | EGFR 0 | EGFR_G719S 0 | EGFR_G719S_T790M 0 | EGFR_L718V 0 | EGFR_L858R 0 | EGFR_L861Q 0 | EGFR_T790M 0 | EPHA2 = 0 | ERBB3 = 0 | [1] 0

COc1ccc2nc3ccc(OC)cc3c(SCCCN)c2c1 (10 µM)
inactive: CDK7 = 0 | CDK9 = 0 | CHEK2 = 0 | CSF1R 0 | CSK 0 | CSNK1A1 = 0 | CSNK1D 0 | DDR1 = 0 | DYRK1B 0 | DYRK2 = 0 | EGFR 0 | EGFR_G719S 0 | EGFR_G719S_T790M 0 | EGFR_L718V 0 | EGFR_L858R 0 | EGFR_L861Q 0 | EGFR_T790M 0 | EPHA2 = 0 | ERBB3 = 0 | [1] 0

CCCCNc1ncc2c(-c3ccc(F)cc3)nn(CC3CCC(N)CC3)c2n1 (stereo not given) (2.5 µM)
inactive: CDK7 = 0 | CDK9 = 0 | CHEK2 = 0 | CSF1R 0 | CSK 0 | CSNK1A1 = 0 | CSNK1D 0 | DDR1 = 0 | DYRK1B 0 | DYRK2 = 0 | EGFR 0 | EGFR_G719S 0 | EGFR_G719S_T790M 0 | EGFR_L718V 0 | EGFR_L858R 0 | EGFR_L861Q 0 | EGFR_T790M 0 | EPHA2 = 0 | ERBB3 = 0 | [1] 0

COc1cc2ncnc(Nc3cc(Br)c(O)c(Br)c3)c2cc1OC (2.5 µM)
inactive: CDK7 = 0 | CDK9 = 0 | CHEK2 = 0 | CSF1R 0 | CSK 0 | CSNK1A1 = 0 | CSNK1D 0 | DDR1 = 0 | DYRK1B 0 | DYRK2 = 0 | EGFR 0 | EGFR_G719S 0 | EGFR_G719S_T790M 0 | EGFR_L718V 0 | EGFR_L858R 0 | EGFR_L861Q 0 | EGFR_T790M 0 | EPHA2 = 0 | ERBB3 = 0 | [1] 0
